According to paper PMC8881573, “Inhibition of SRP-dependent protein secretion by the bacterial alarmone (p)ppGpp” (Nature Communications, 2022):
No constants are given. Whether binding was seen depends on the method and setting. For some assays here: Binding can be weak; no strength is given.

By UniProt entry, the sequences of proteins in these tests, tags left out. Where a name states a change or a piece, a line headed by the entry shows the natural chain unless it says otherwise.
UniProt P10121: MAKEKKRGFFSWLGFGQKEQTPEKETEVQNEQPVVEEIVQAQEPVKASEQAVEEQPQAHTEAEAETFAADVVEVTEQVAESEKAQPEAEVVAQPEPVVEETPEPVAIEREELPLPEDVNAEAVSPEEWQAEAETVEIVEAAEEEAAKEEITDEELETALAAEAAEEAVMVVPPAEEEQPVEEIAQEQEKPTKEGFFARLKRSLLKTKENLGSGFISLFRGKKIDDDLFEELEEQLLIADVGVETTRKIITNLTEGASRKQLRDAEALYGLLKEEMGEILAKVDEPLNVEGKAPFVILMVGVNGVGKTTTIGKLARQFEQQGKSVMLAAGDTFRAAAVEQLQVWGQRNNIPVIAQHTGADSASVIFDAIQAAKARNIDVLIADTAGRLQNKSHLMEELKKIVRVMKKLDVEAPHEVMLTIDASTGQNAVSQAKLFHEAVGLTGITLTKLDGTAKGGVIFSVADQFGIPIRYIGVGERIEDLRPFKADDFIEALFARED

What was measured:
[1] = molecular target: NG domain of (Ec)FtsY (E. coli) (UniProt P10121); assay: SEC; NG domains at 100 µM each (Fig. 3g) or 50 µM each (Fig. 3h, i) with 0.25, 0.5 or 1 mM GMPPNP, 30 min at room temperature; 20 mM HEPES pH 7.5, 200 mM NaCl, 20 mM MgCl2, 20 mM KCl; S200 300/10 GL at 4 °C; both purified
[2] = molecular target: NG domain of (Ec)FtsY (E. coli) (UniProt P10121); assay: condition: only with ppGpp or pppGpp at more than twofold the GMPPNP concentration; SEC; as a1, with ppGpp or pppGpp added at more than twofold the GMPPNP concentration; half-inhibited at equal (p)ppGpp/GMPPNP ratios; both purified

B1: NG domain of (Ec)Ffh (domain or fragment, UniProt P0AGD7 2-299)
chain: FDNLTDRLSRTLRNISGRGRLTEDNVKDTLREVRMALLEADVALPVVREFINRVKEKAVGHEVNKSLTPGQEFVKIVRNELVAAMGEENQTLNLAAQPPAVVLMAGLQGAGKTTSVGKLGKFLREKHKKKVLVVSADVYRPAAIKQLETLAEQVGVDFFPSDVGQKPVDIVNAALKEAKLKFYDVLLVDTAGRLHVDEAMMDEIKQVHASINPVETLFVVDAMTGQDAANTAKAFNEALPLTGVVLTKVDGDARGGAALSIRHITGKPIKFLGVGEKTEALEPFHPDRIASRILGMGD
- binding [1]: binds
- binding [2]: no binding
